Taken from: PubChem BioAssay AID1224828 (NIAID, 2016)
Purpose: 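Find genes required for NF-kappaB p65 moving into the nucleus after LPS in mouse macrophages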 (primary screen). Cell system: mouse RAW264.7 G9 macrophage reporter cells (GFP-p65, Tnf promoter-mCherry). Reagent: siRNA pool against mouse genes, 100 nM. Timing: 2 days siRNA transfection, then 40 min LPS before fixation. Conditions: LPS (Salmonella minnesota R595) at 10 ng/ml. Measured: 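Microscopy ratio of nuclear to perinuclear-ring GFP-p65 signal, scaled to the plate median; gene score is the average of two replicate robust z-scores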. Scale: p65 translocation robust z-score: higher = more nuclear NF-kappaB p65 after LPS than the plate median; nuclear/cytoplasmic p65 ratio: higher = more nuclear NF-kappaB p65. Call rule: 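Called active when z exceeds 3.3 or falls under -1.56 (median of Tlr4 controls), giving activity score of at least 50; no calls for control wells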. Calls: active = hit (p65 shift raised or lowered); inactive = no clear change.
The deposit covers about 17,000 reagents; this is a part drawn at random. Over the whole deposit, 762 (4.5%) were called active. 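Active calls include both raised and lowered p65 entry, mostly lowered; wells with fewer than 50 cells lack a z-score.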 Raw values vary from plate to plate and are shown uncorrected. Unmarked entries are inactive. Reagent sequences are not shown.

| target | p65 translocation robust z-score | nuclear/cytoplasmic p65 ratio, rep 1 | nuclear/cytoplasmic p65 ratio, rep 2 | low cell count flag |
| --- | --- | --- | --- | --- |
| Iqce (IQ motif containing E) | -0.36 | 1.32 | 1.4 | enough cells to score |
| Cct6b (chaperonin containing TCP1 subunit 6B) | -1.17 | 1.32 | 1.23 | enough cells to score |
| Fan1 (FANCD2/FANCI-associated nuclease 1) | -0.87 | 1.22 | 1.38 | enough cells to score |
| Galns (galactosamine (N-acetyl)-6-sulfatase) | 0.12 | 1.42 | 1.41 | enough cells to score |
| Tm9sf1 (transmembrane 9 superfamily member 1) | 0.89 | 1.48 | 1.34 | enough cells to score |
| Trappc2 (trafficking protein particle complex 2) | -0.03 | 1.44 | 1.19 | enough cells to score |
| P2ry6 (pyrimidinergic receptor P2Y, G-protein coupled, 6) | -0.12 | 1.49 | 1.46 | enough cells to score |
| Fibp | -0.77 | 1.31 | 1.29 | enough cells to score |
| Ifit1bl2 | -0.07 | 1.56 | 1.64 | enough cells to score |
| Mrpl46 (mitochondrial ribosomal protein L46) | 1.79 | 2.14 | 1.81 | enough cells to score |
| Sox3 (SRY (sex determining region Y)-box 3) | -0.28 | 1.42 | 1.6 | enough cells to score |
| Grik5 (glutamate receptor, ionotropic, kainate 5 (gamma 2)) | 0.02 | 1.45 | 1.36 | enough cells to score |
| Ddx3y (DEAD box helicase 3, Y-linked) | – | 1.29 | 1.26 | fewer than 50 cells per well; well left out of scoring |
| Palm (paralemmin) | -0.65 | 1.32 | 1.2 | enough cells to score |
| Kpna4 (karyopherin subunit alpha 4) | -0.67 | 1.33 | 1.34 | enough cells to score |
| Adgra2 (adhesion G protein-coupled receptor A2) | 0.36 | 1.54 | 1.65 | enough cells to score |
| Lrrc4c (leucine rich repeat containing 4C) | 0.87 | 1.54 | 1.59 | enough cells to score |
| Hs6st3 (heparan sulfate 6-O-sulfotransferase 3) | – | 1.17 | 1.12 | fewer than 50 cells per well; well left out of scoring |
| Tnfaip1 (tumor necrosis factor, alpha-induced protein 1 (endothelial)) | -1.39 | 1.35 | 1.3 | enough cells to score |
| Krt42 (keratin 42) | 0.59 | 1.49 | 1.53 | enough cells to score |
| Arhgef6 (Rac/Cdc42 guanine nucleotide exchange factor 6) | -0.97 | 1.49 | 1.46 | enough cells to score |
| Spink8 (serine peptidase inhibitor, Kazal type 8) | 0.39 | 1.66 | 1.83 | enough cells to score |
| Cdkn3 (cyclin dependent kinase inhibitor 3) | -0.56 | 1.55 | 1.35 | enough cells to score |
| Zfp24 (zinc finger protein 24) | -0.43 | 1.45 | 1.45 | enough cells to score |

Limited to “nuclear/cytoplasmic p65 ratio, rep 1”, for 6 of the entries above:
Cct6b (chaperonin containing TCP1 subunit 6B): 1.32
Fan1 (FANCD2/FANCI-associated nuclease 1): 1.22
Galns (galactosamine (N-acetyl)-6-sulfatase): 1.42
Tm9sf1 (transmembrane 9 superfamily member 1): 1.48
Trappc2 (trafficking protein particle complex 2): 1.44
P2ry6 (pyrimidinergic receptor P2Y, G-protein coupled, 6): 1.49

Additional results follow:
| target | p65 translocation robust z-score | nuclear/cytoplasmic p65 ratio, rep 1 | nuclear/cytoplasmic p65 ratio, rep 2 | low cell count flag |
| --- | --- | --- | --- | --- |
| Rdx (radixin) | -0.08 | 1.49 | 1.52 | enough cells to score |
| Scarb2 (scavenger receptor class B, member 2) | -1.34 | 1.34 | 1.31 | enough cells to score |
| Itgb6 (integrin beta 6) | 0.1 | 1.41 | 1.46 | enough cells to score |
| Bhlhe41 (basic helix-loop-helix family, member e41) | -0.94 | 1.13 | 1.39 | enough cells to score |
| Wdr45 (WD repeat domain 45) | -0.42 | 1.3 | 1.25 | enough cells to score |
| Or7a37 (olfactory receptor family 7 subfamily A member 37) | 1.88 | 1.74 | 1.9 | enough cells to score |
| Bhmt (betaine-homocysteine methyltransferase) | -2.07 (active) | 1.01 | 1.24 | enough cells to score |
| Klf12 (Kruppel-like transcription factor 12) | 0.56 | 1.5 | 1.5 | enough cells to score |
| A930018P22Rik (RIKEN cDNA A930018P22 gene) | 2 | 1.63 | 1.81 | enough cells to score |
| Tas2r126 (taste receptor, type 2, member 126) | -0.29 | 1.47 | 1.55 | enough cells to score |
| Tmem127 (transmembrane protein 127) | – | 1.44 | 1.36 | fewer than 50 cells per well; well left out of scoring |
| Adgrf4 (adhesion G protein-coupled receptor F4) | 0.37 | 1.55 | 1.62 | enough cells to score |
| Flrt1 (fibronectin leucine rich transmembrane protein 1) | -1.27 | 1.39 | 1.62 | enough cells to score |
| Stmn4 (stathmin-like 4) | -0.97 | 1.28 | 1.13 | enough cells to score |
| Thumpd1 (THUMP domain containing 1) | 0.03 | 1.35 | 1.21 | enough cells to score |
| Pih1d2 (PIH1 domain containing 2) | -0.19 | 1.41 | 1.44 | enough cells to score |
